Results published in patent publication US20220175675A1, “ENCAPSULATING MOLECULES IN FAT GLOBULES” (The Regents of the University of California, priority 2019, published 2022).

Test: Multi-photon fluorescence microscopy of DMEQ-TAD-labelled VD3 in MFGs
Conditions: DMEQ-TAD-labelled VD3, bovine MFGs; listed as VD3

C=C1CC[C@H](O)C/C1=C/C=C1\CCC[C@]2(C)[C@@H]([C@H](C)CCCC(C)C)CC[C@@H]12 [Cholecalciferol]
distribution of VD3 fluorescent signal in MFGs: even distribution of fluorescent signal through the structure of MFGs; also recorded: homogenous localization

“Also recorded” adds a separate entry of the source.
